Data as given in PubChem BioAssay AID1259274 (Sanger Institute, 2017).
In all, the deposit lists 794 reagents; this is an unselected part. 11 of all reagents (1.4%) count as active. 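Calls rest on knock-down without drug only; synergy scores with anchor drugs were not used for the essential call.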 Entries without a mark were called inactive. Not all columns of the deposit are shown. Not stated in the record: the amount of reagent, the time to read-out.

Purpose: 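siRNA screen of kinases for partners that act in synergy with targeted drugs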 (primary screen)
System: human RKO colorectal cancer cells
Reagents: siRNA pool against human genes
Treatment: anchor drugs BYL719 at 1 µM, cetuximab at 5 µg/ml or trametinib at 10 nM; DMSO vehicle as the no-drug arm
Detection: 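Viability of cells versus control pool 2 (non-targeting) averaged across replicates; knock-down-only robust z-score; for every anchor drug (BYL719, cetuximab, trametinib) a synergy score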
Direction: viability z-score, siRNA alone: higher = more viable cells; low values mean essential gene
Active means: 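a single knock-down scoring under -3 on the robust z-score, meaning fewer cells, counts as essential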
Calls: active = essential when knocked down alone; inactive = no change alone

"viability z-score, siRNA alone",Gene
-0.493,TLK2 (tousled like kinase 2)
-0.616,PIK3R4 (phosphoinositide-3-kinase regulatory subunit 4)
1.19,ITPK1 (inositol-tetrakisphosphate 1-kinase)
-0.262,PKN3 (protein kinase N3)
0.135,PIK3R1 (phosphoinositide-3-kinase regulatory subunit 1)
0.899,CSNK1G2 (casein kinase 1 gamma 2)
-0.844,PIP5KL1 (phosphatidylinositol-4-phosphate 5-kinase like 1)
-0.442,PIK3CB
-0.484,NME1 (NME/NM23 nucleoside diphosphate kinase 1)
-1.02,PIK3CG
0.481,TSSK6 (testis specific serine kinase 6)
0.44,NEK2 (NIMA related kinase 2)
0.34,CAMK2G (calcium/calmodulin dependent protein kinase II gamma)
-0.261,CDKN1A (cyclin dependent kinase inhibitor 1A)
-2.09,GUK1 (guanylate kinase 1)
-1.52,PI4K2B (phosphatidylinositol 4-kinase type 2 beta)
-0.462,HSPB8 (heat shock protein family B (small) member 8)
0.853,ZAP70 (zeta chain of T cell receptor associated protein kinase 70)
0.139,NUCKS1
0.569,TBCK (TBC1 domain containing kinase)
-1.06,TBX3 (T-box transcription factor 3)

Entries listed so far whose target name begins with T or t:
"viability z-score, siRNA alone",Gene
-0.493,TLK2 (tousled like kinase 2)
0.481,TSSK6 (testis specific serine kinase 6)
0.569,TBCK (TBC1 domain containing kinase)
-1.06,TBX3 (T-box transcription factor 3)

Further records follow.
"viability z-score, siRNA alone",Gene
1.19,HK2 (hexokinase 2)
-0.483,HIPK4 (homeodomain interacting protein kinase 4)
-0.128,IKBKG
1.19,RNASEL (ribonuclease L)
0.544,"PFKM (phosphofructokinase, muscle)"
1.19,PDXK (pyridoxal kinase)
-0.846,DLG1 (discs large MAGUK scaffold protein 1)
0.825,SMAD4 (SMAD family member 4)
0.311,"MET (MET proto-oncogene, receptor tyrosine kinase)"
0.507,"MOS (MOS proto-oncogene, serine/threonine kinase)"
-0.387,MASTL (microtubule associated serine/threonine kinase like)
-0.163,PRKCG (protein kinase C gamma)
1.19,SIK2 (salt inducible kinase 2)
1.14,TRIB3 (tribbles pseudokinase 3)
-0.155,SRGAP3 (SLIT-ROBO Rho GTPase activating protein 3)
0.274,PRKAG2 (protein kinase AMP-activated non-catalytic subunit gamma 2)
-0.744,FXR1 (FMR1 autosomal homolog 1)
0.223,PANK1 (pantothenate kinase 1)
-0.445,EFNA3 (ephrin A3)
0.962,PNKP (polynucleotide kinase 3'-phosphatase)
-1.34,FOXP1 (forkhead box P1)
-0.562,SOX9 (SRY-box transcription factor 9)
1.19,DNMT3A (DNA methyltransferase 3 alpha)
-0.325,PIK3CA
0.6,APC (APC regulator of Wnt signaling pathway)
-0.72,INSRR (insulin receptor related receptor)
0.398,PRKCD (protein kinase C delta)
0.483,RIPK4 (receptor interacting serine/threonine kinase 4)
0.0514,STK38 (serine/threonine kinase 38)
-2.82,CLSPN (claspin)
1.19,TNK1 (tyrosine kinase non receptor 1)
-1.89,AK7 (adenylate kinase 7)
-5.21 (active),NUP98 (nucleoporin 98 and 96 precursor)
1.19,BRDT (bromodomain testis associated)
0.0696,EPHA1 (EPH receptor A1)
0.031,NEK3 (NIMA related kinase 3)
1.19,TNK2 (tyrosine kinase non receptor 2)
-0.579,VRK3 (VRK serine/threonine kinase 3)
0.371,MAP3K5 (mitogen-activated protein kinase kinase kinase 5)
-0.246,IRAK1 (interleukin 1 receptor associated kinase 1)
1.19,"ARAF (A-Raf proto-oncogene, serine/threonine kinase)"
0.269,GOLGA5 (golgin A5)
